In PubChem BioAssay AID2685 (National Center for Advancing Translational Sciences (NCATS), 2010):
This is one part of the list. The main result of the screen is listed elsewhere. These columns were measured beside it and carry no call. Compounds called inactive in the main read-out are mostly missing here. Potencies come from curve fits of mixed quality, noted in brackets.

Experiment: qHTS Assay for Lipid Storage Modulators in Drosophila S3 Cells;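 on cell number change: cells counted by Cell Tracker Red CMTPX staining in the red channel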
Settings: BODIPY lipid droplet fluorescence, 18-24 h; for cell number change: measured here: cell count max response, cells fed with added oleic acid
How it was run: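 Laser-scanning cytometry quantifies lipid droplet accumulation (500–530 nm total intensity; droplet/cell object ratio) in oleic acid-fed (400 uM added) Drosophila S3 cells treated with a concentration series. 20 uM Triacsin C defined 100% inhibition.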

[1] = measured here: lipid fluorescence (Fed channel) AC50, cells fed with added oleic acid
[2] = measured here: cell number channel AC50, cells fed with added oleic acid

Row | Structure (SMILES) | cell number change | AC50 [1] | AC50 [2]
1 | c1ccc(C2Oc3ccccc3C3CC(c4cccs4)=NN32)cc1 (stereo not given) | -11.8% | 36.6 µM [falling, partial curve, poor fit] | 
2 | O=C(COc1ccccc1)N1CCN=C1SCc1cccnc1 | -1.19% |  | 2.06 µM [falling, partial curve]
3 | COc1ccc(S(=O)(=O)Nc2ccc3oc(C)c(C(C)=O)c3c2)cc1 | 5.94% | 2.06 µM [rising, partial curve] | 
4 | COc1ccc(C)cc1NC(=O)c1ccc(-c2ccc(C(C)=O)cc2)o1 | 44.8% | 4.11 µM [rising, full curve] | 0.651 µM [rising, full curve]
5 | Cc1ccc(NC(=O)N2CCN(Cc3ccc4c(c3)OCO4)CC2)cc1 | -48.5% | 29.1 µM [falling, single point] | 20.6 µM [falling, single point]
6 | Cc1cc(Br)c2c(c1)/C(=C/C(=O)c1cccs1)C(=O)N2 | -8.34% | 0.13 µM [rising, single point] | 
7 | Cc1c(C(=O)N2CCCCC2)c(S(=O)(=O)NCc2ccc(Cl)cc2)c(C)n1C | 8.56% |  | 
8 | COc1cccc(NC(=S)N/N=C2\CC(C)(C)Oc3ccc(O)cc32)c1 | 5.86% | 2.31 µM [rising, partial curve, poor fit] | 
9 | COC(c1ccccc1)c1nnc(CCC(=O)NCc2ccc3ncccc3c2)o1 (stereo not given) | -9.27% | 29.1 µM [falling, single point] | 
10 | COC(=O)c1ccc(NCCC(=O)O)cc1 | 1.65% |  | 
11 | COc1cc(/C=N/n2c(C)n[nH]c2=S)ccc1OCc1ccc(F)cc1 | 34.5% | 20.6 µM [rising, partial curve] | 18.4 µM [rising, partial curve, poor fit]
12 | COc1cc(Cl)ccc1OCc1cc(C(=O)NC(C)Cc2cnccn2)no1 (stereo not given) | 15.2% | 0.259 µM [rising, full curve] | 
13 | NC(=O)c1ccccc1Br | 0.543% | 3.66 µM [falling, single point] | 
14 | CCN=c1scc(C)n1/N=C/c1cc(Br)c(O)c(OC)c1 | -3.91% | 6.51 µM [falling, single point] | 6.51 µM [falling, single point]
15 | Cc1ccc(NC(=S)N2CCN(S(C)(=O)=O)CC2)cc1C | 24% |  | 
16 | COc1cc(CCC(=O)N2CC(C)OC(C)C2)cc(OC)c1OC (stereo not given) | 0.587% | 25.9 µM [falling, single point] | 
17 | Cc1cc2c([nH]c3ccccc32)c2c1OC(C)(C)C=C2 | -55.5% | 29.1 µM [falling, single point] | 16.4 µM [falling, single point]
18 | COc1ccccc1NC(=O)c1ccc(N2CC3CC(C2)c2cccc(=O)n2C3)c(NC(=O)c2ccncc2)c1 (stereo not given) | 20.2% | 0.13 µM [rising, full curve, poor fit] | 
19 | COc1ccc(/C=N/NC(C)(C)C)c(OC)c1 | 33.8% | 3.66 µM [falling, single point] | 11.6 µM [rising, single point]
20 | CCOc1ncccc1C(=O)N1CCN(c2cc(Cl)ccc2C)CC1 | 17.5% | 0.651 µM [falling, single point] | 0.517 µM [rising, full curve, poor fit]

Row | Structure (SMILES) | cell number change | AC50 [1] | AC50 [2]
21 | COC(=O)c1cc(OC)c(OC)cc1NC(=O)c1ccccc1 | 29.4% | 5.8 µM [rising, full curve] | 1.84 µM [rising, full curve, poor fit]
22 | CCOC(=O)c1ccccc1NC(=O)COC(=O)CSc1ccccc1 | -13.4% | 0.092 µM [falling, full curve, poor fit] | 
23 | O=C(NCCOc1cccc(Cl)c1Cl)c1cc(-n2cnnc2)ccc1Cl | -15% | 0.116 µM [falling, full curve, poor fit] | 
24 | COc1ccc2c(c1)CCc1c(C(=O)Nc3c(C)nn(Cc4ccccc4)c3C)noc1-2 |  | 2.91 µM [rising, partial curve] | 
25 | Cc1ccc2[nH]c(=O)c(C(c3nnnn3CCc3ccccc3)N3CCOCC3)cc2c1 (stereo not given) |  |  | 0.103 µM [rising, full curve, poor fit]
26 | CCCCc1ccc(NC(=S)N2CCC(O)CC2)cc1 | -7.06% | 5.17 µM [falling, single point] | 0.13 µM [falling, single point]
27 | CSc1cccc(NC(=O)CCS(=O)(=O)c2cccc3nonc23)c1 | 15.8% |  | 
28 | O=C(CCCCCNc1nc(=S)[nH]c2ccccc12)NCCc1c[nH]c2ccccc12 | -26.9% | 29.1 µM [falling, single point] | 
29 | COc1ccc(NC(=O)CSc2nc(N)c(C(=O)Nc3ccc(N(C)C)cc3)s2)cc1 | 22.1% | 0.366 µM [rising, single point] | 
30 | CCCCCC(=O)NC(CC(=O)OC)c1ccc2c(c1)OCO2 (stereo not given) | 50.2% |  | 20.6 µM [rising, single point]
31 | O=C(c1ccc(-c2ccccc2Cl)o1)N1CCC1 |  | 6.51 µM [rising, single point] | 7.31 µM [falling, single point]
32 | CSC1=NCCN1C(=O)Cc1ccc(-c2ccccc2)cc1 | 44.7% | 5.8 µM [rising, single point] | 1.03 µM [rising, full curve]
33 | COc1ccc(OC)c(C(=O)c2ccccn2)c1 | 27.3% | 3.26 µM [rising, full curve] | 
34 | Cc1ccc([N+](=O)[O-])cc1N | 31.7% | 16.4 µM [rising, single point] | 1.64 µM [rising, full curve, poor fit]
35 | CC(C)NC(=O)CC1OC(=O)c2ccccc21 (stereo not given) | -98.3% | 23.1 µM [falling, partial curve] | 23.1 µM [falling, partial curve, poor fit]
36 | Cc1ccc(-n2nc(C)c(C(=O)O)c2-n2cccc2)cc1 | -23.8% | 0.13 µM [falling, full curve, poor fit] | 
37 | CC(C)(C)c1cc(-c2nc(N)nc(N)n2)cc(C(C)(C)C)c1 | -66.4% |  | 29.1 µM [falling, single point]
38 | CCCCCCNc1c(C(=O)OCC)c(=O)[nH]c2ccccc12 | -37.7% | 29.1 µM [falling, single point] | 
39 | C(=N\N1CCN(Cc2ccccc2)CC1)/c1ccc(-c2ccccc2)cc1 | 9.81% |  | 
40 | CCCCOc1ncnc2c1[nH]c1ccc(C)cc12 | -24.5% | 5.8 µM [falling, full curve] | 

From entry 30 to 33, copied from above:
Row | Structure (SMILES) | cell number change | AC50 [1] | AC50 [2]
30 | CCCCCC(=O)NC(CC(=O)OC)c1ccc2c(c1)OCO2 (stereo not given) | 50.2% |  | 20.6 µM [rising, single point]
31 | O=C(c1ccc(-c2ccccc2Cl)o1)N1CCC1 |  | 6.51 µM [rising, single point] | 7.31 µM [falling, single point]
32 | CSC1=NCCN1C(=O)Cc1ccc(-c2ccccc2)cc1 | 44.7% | 5.8 µM [rising, single point] | 1.03 µM [rising, full curve]
33 | COc1ccc(OC)c(C(=O)c2ccccn2)c1 | 27.3% | 3.26 µM [rising, full curve] | 

Continuation.

Row | Structure (SMILES) | cell number change | AC50 [1] | AC50 [2]
41 | Cc1ccc(NS(=O)(=O)c2ccc(C(=O)N3CC(C)OC(C)C3)cc2)cc1 (stereo not given) |  | 1.46 µM [falling, partial curve] | 
42 | FC(F)(F)c1ccc(/C=N/N2CCN(Cc3ccccc3)CC2)cc1 | -18.2% |  | 
43 | NC(=S)Nc1cccc(-c2n[nH]c(=S)o2)c1 | 5.96% | 29.1 µM [rising, single point] | 
44 | CCOC(=O)CNC(=S)N(Cc1ccc(C)cc1)Cc1ccc(C)o1 | -52.2% | 3.66 µM [falling, partial curve] | 14.6 µM [falling, partial curve]
45 | O=C(Cn1cc2c(n1)CCCCC2)NCCCN1CCOCC1 | -58.8% | 14.6 µM [falling, partial curve] | 29.1 µM [falling, partial curve, poor fit]
46 | Cc1nc(/N=C(\N)NC(=O)NC2CCCCC2)nc2ccccc12 | -36.8% | 16.4 µM [falling, partial curve, poor fit] | 14.6 µM [falling, single point]
47 | COC(=O)C1=C(C)NC(c2c(O)ccc3ccccc23)C(C(=O)OC)=C1C (stereo not given) | 9.17% | 9.2 µM [rising, partial curve] | 
48 | COc1ccc(C)cc1N(CC(=O)N/N=C/c1ccccc1C(=O)O)S(=O)(=O)c1ccccc1 |  | 0.13 µM [rising, full curve, poor fit] | 
49 | CC1=CC(C)(C)N2C(=O)C3(NCCc4c3[nH]c3ccccc43)c3cc(C)cc1c32 (stereo not given) | -5.38% | 2.31 µM [falling, partial curve, poor fit] | 
50 | Cc1cc(-c2ccc([N+](=O)[O-])cc2)nc2ccccc12 | 22.8% | 20.6 µM [rising, partial curve] | 
51 | c1ccc(-c2nc(-c3ccncc3)no2)cc1 | -7.78% | 11.6 µM [falling, partial curve] | 
52 | Cc1nnc(SCc2nc3ccccc3nc2C)s1 | 33.5% |  | 0.82 µM [rising, full curve, poor fit]
53 | N#CCC(=O)Nc1ccc(C(=O)NCCc2c[nH]c3ccccc23)cc1 | -6.41% |  | 
54 | O=C(CSc1ncnc2c1oc1ccccc12)N1CCCc2ccccc21 |  | 3.66 µM [rising, partial curve] | 
55 | COCCN(C(=O)COC(=O)c1c(-c2ccccc2)noc1C)c1c(N)n(Cc2ccccc2)c(=O)[nH]c1=O | -6.52% |  | 
56 | NS(=O)(=O)c1ccc(N=Cc2ccc(Br)s2)cc1 | -6.27% | 6.51 µM [falling, partial curve] | 
57 | CCOC(=O)c1sc2nc(CC(=O)OC)nc(NCCN(CC)CC)c2c1C | 19% |  | 
58 | O=C(Nc1ccccc1)Nc1ccc2nnsc2c1 | -68.8% | 2.91 µM [falling, partial curve] | 2.31 µM [falling, partial curve]
59 | O=C(COC(=O)Cc1c[nH]c2ccccc12)NC1CCCCC1 | 54.5% |  | 29.1 µM [rising, single point]
